Measurements taken from the supplement of paper PMC10331698.
± gives the standard deviation of the averaged measurements. Most entries show no effect beyond the scatter of the controls.

Key:
Assay in all cases: level (log10 ratio to DMSO vehicle control); higher = higher biomarker level / cell amount than vehicle control
[1] = compound: CCN(CCO)S(=O)(=O)C(F)(F)C(F)(F)C(F)(F)C(F)(F)C(F)(F)C(F)(F)C(F)(F)C(F)(F)F [N-Ethyl-N-(2-hydroxyethyl)perfluorooctanesulfonamide]; conditions: in DMSO
Procedure: (§1)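 BioMAP Diversity Plus panel of 12 human primary cell co-culture systems (3C, 4H, LPS, SAg, BT, BF4T, BE3C, CASM3C, HDF3CGF, KF3CT, MyoF, Mphg). Compounds were added 1 h before stimulation and left for 24 h (MyoF 48 h; BT 72 h for soluble read-outs or 6 d for IgG). Biomarkers were read by ELISA, cytotoxicity by SRB, PBMC viability and proliferation by Alamar Blue. Each well value was divided by the mean of 8 DMSO control wells on the same plate and log10 transformed; duplicate blinded samples were tested at 4 concentrations.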

[2] = compound: O=C(O)C(F)(F)C(F)(F)C(F)(F)OC(F)(F)F [Perfluoro(4-methoxybutanoic) acid]; conditions: 2200 nM; in DMSO
Procedure: as §1

[3] = compound: O=C(O)C(F)(F)C(F)(F)C(F)(F)C(F)(F)C(F)(F)C(F)(F)C(F)(F)C(F)(F)C(F)(F)C(F)F [11-H-Perfluoroundecanoic acid]; conditions: 2200 nM; in DMSO
Procedure: as §1

Heptafluorobutyramide = compound: NC(=O)C(F)(F)C(F)(F)C(F)(F)F [Heptafluorobutyramide]; conditions: 2200 nM; in DMSO
Procedure: as §1

[4] = compound: CC(C)(C)C(=O)CC(=O)C(F)(F)C(F)(F)C(F)(F)F [(Heptafluorobutanoyl)pivaloylmethane]; conditions: 2200 nM; in DMSO
Procedure: as §1

[5] = compound: FC(F)(F)C(F)(F)C(F)(F)C(F)(F)C(F)(F)C(F)(F)CC1CO1 [3-(Perfluorohexyl)-1,2-epoxypropane]; conditions: 2200 nM; in DMSO
Procedure: as §1

[6] = compound: OCCC(F)(F)C(F)(F)C(F)(F)C(F)(F)C(F)(F)C(F)(F)F [6:2 Fluorotelomer alcohol]; conditions: 2200 nM; in DMSO
Procedure: as §1

[7] = compound: NCC(F)(F)C(F)(F)C(F)(F)C(F)(F)C(F)(F)C(F)(F)C(F)(F)F [1H,1H-Perfluorooctylamine]; conditions: 2200 nM; in DMSO
Procedure: as §1

Octafluoroadipic acid = compound: O=C(O)C(F)(F)C(F)(F)C(F)(F)C(F)(F)C(=O)O [Octafluoroadipic acid]; conditions: 2200 nM; in DMSO
Procedure: as §1

[8] = compound: O=S(=O)(O)CCC(F)(F)C(F)(F)C(F)(F)C(F)(F)C(F)(F)C(F)(F)C(F)(F)C(F)(F)F [8:2 Fluorotelomer sulfonic acid]; conditions: in DMSO
Procedure: as §1

1-(Perfluorohexyl)octane = compound: CCCCCCCCC(F)(F)C(F)(F)C(F)(F)C(F)(F)C(F)(F)C(F)(F)F [1-(Perfluorohexyl)octane]; conditions: in DMSO
Procedure: as §1

[9] = compound: Cc1ccc(S(=O)(=O)OCC(F)(F)C(F)(F)C(F)(F)C(F)(F)C(F)(F)C(F)F)cc1 [1H,1H,7H-Perfluoroheptyl 4-methylbenzenesulfonate]; conditions: 2200 nM; in DMSO
Procedure: as §1

Perfluoroheptanoic acid = compound: O=C(O)C(F)(F)C(F)(F)C(F)(F)C(F)(F)C(F)(F)C(F)(F)F [Perfluoroheptanoic acid]; conditions: in DMSO
Procedure: as §1

Perfluoropentanoic acid = compound: O=C(O)C(F)(F)C(F)(F)C(F)(F)C(F)(F)F [Perfluoropentanoic acid]; conditions: in DMSO
Procedure: as §1

[10] = compound: CN(C(=O)C(F)(F)C(F)(F)C(F)(F)F)[Si](C)(C)C [N-Methyl-N-trimethylsilylheptafluorobutyramide]; conditions: 2200 nM; in DMSO
Procedure: as §1

1H,1H-Heptafluorobutanol = compound: OCC(F)(F)C(F)(F)C(F)(F)F [1H,1H-Heptafluorobutanol]; conditions: 2200 nM; in DMSO
Procedure: as §1

| Test System | level (log10) ([1]; 2200 nM) | level (log10) ([1]; 6700 nM) | level (log10) ([1]; 20000 nM) | level (log10) [2] | level (log10) [3] | level (log10) (Heptafluorobutyramide) | level (log10) [4] | level (log10) [5] | level (log10) [6] | level (log10) [7] | level (log10) (Octafluoroadipic acid) | level (log10) ([8]; 2200 nM) | level (log10) ([8]; 6700 nM) | level (log10) ([8]; 20000 nM) | level (log10) ([8]; 60000 nM) | level (log10) (1-(Perfluorohexyl)octane; 740 nM) | level (log10) (1-(Perfluorohexyl)octane; 2200 nM) | level (log10) [9] | level (log10) (Perfluoroheptanoic acid; 2200 nM) | level (log10) (Perfluoroheptanoic acid; 6700 nM) | level (log10) (Perfluoroheptanoic acid; 20000 nM) | level (log10) (Perfluoroheptanoic acid; 60000 nM) | level (log10) (Perfluoropentanoic acid; 2200 nM) | level (log10) (Perfluoropentanoic acid; 6700 nM) | level (log10) (Perfluoropentanoic acid; 20000 nM) | level (log10) (Perfluoropentanoic acid; 60000 nM) | level (log10) [10] | level (log10) (1H,1H-Heptafluorobutanol) |
| --- | --- | --- | --- | --- | --- | --- | --- | --- | --- | --- | --- | --- | --- | --- | --- | --- | --- | --- | --- | --- | --- | --- | --- | --- | --- | --- | --- | --- |
| BF4T:tPA | 0.059 ± 0.02 | 0.0595 ± 0.0064 | 0.067 ± 0.0028 | 0.015 ± 0.027 | -0.0805 ± 0.0035 | 0.009 ± 0.024 | -0.004 ± 0.028 | 0.013 ± 0.082 | 0.036 ± 0.081 | 0.0065 ± 0.077 | 0.0125 ± 0.033 | -0.0005 ± 0.063 | -0.0045 ± 0.028 | -0.0525 ± 0.0021 | -0.0465 ± 0.016 | 0.0095 ± 0.039 | 0.001 ± 0.025 | -0.0095 ± 0.026 | 0.0385 ± 0.067 | -0.0125 ± 0.005 | -0.0145 ± 0.015 | 0.004 ± 0.073 | -0.0015 ± 0.0078 | -0.0295 ± 0.005 | -0.0215 ± 0.029 | -0.009 ± 0.061 | 0.0125 ± 0.018 | 0.0155 ± 0.018 |
| BF4T:uPA | 0.011 ± 0.0099 | 0.008 ± 0.0028 | 0.0055 ± 0.012 | 0.0015 ± 0.0035 | -0.01 ± 0.021 | 0.007 ± 0.0085 | -0.0115 ± 0.00071 | 0.0165 ± 0.05 | 0.004 ± 0.011 | 0.0025 ± 0.042 | 0.0065 ± 0.011 | -0.001 ± 0.023 | 0.012 ± 0.0085 | 0.0055 ± 0.00071 | 0.0175 ± 0.0092 | -0.0045 ± 0.00071 | -0.012 ± 0.0028 | 0.0075 ± 0.03 | 0.007 ± 0.038 | -0.017 ± 0.0057 | -0.0115 ± 0.012 | 0.009 ± 0.0085 | -0.0085 ± 0.019 | -0.0315 ± 0.029 | -0.031 ± 0.023 | -0.0175 ± 0.033 | -0.0115 ± 0.023 | -0.004 ± 0.0042 |
| BT:B cell Proliferation | 0.017 ± 0.061 | 0.0165 ± 0.005 | -0.0405 ± 0.059 | 0.0225 ± 0.005 | 0.035 ± 0.017 | -0.005 ± 0.034 | -0.002 ± 0.09 | 0.018 ± 0.0071 | 0.0115 ± 0.025 | -0.001 ± 0.0028 | 0.025 ± 0.0042 | 0.0345 ± 0.0078 | 0.016 ± 0.016 | 0.0415 ± 0.005 | 0.0475 ± 0.033 | 0.0045 ± 0.015 | 0.0065 ± 0.0035 | 0.003 ± 0.021 | 0.031 ± 0.0085 | 0.018 ± 0.0085 | 0.0145 ± 0.033 | 0.061 ± 0.028 | 0.02 ± 0.061 | 0.009 ± 0.0057 | 0.0215 ± 0.06 | 0.0275 ± 0.012 | -0.001 ± 0.0057 | 0.0115 ± 0.036 |
